This is an account of results in article PMC4671683.

Protein sequences, listed by entry. Tags and fused reporters are not part of them.
UniProt P26368: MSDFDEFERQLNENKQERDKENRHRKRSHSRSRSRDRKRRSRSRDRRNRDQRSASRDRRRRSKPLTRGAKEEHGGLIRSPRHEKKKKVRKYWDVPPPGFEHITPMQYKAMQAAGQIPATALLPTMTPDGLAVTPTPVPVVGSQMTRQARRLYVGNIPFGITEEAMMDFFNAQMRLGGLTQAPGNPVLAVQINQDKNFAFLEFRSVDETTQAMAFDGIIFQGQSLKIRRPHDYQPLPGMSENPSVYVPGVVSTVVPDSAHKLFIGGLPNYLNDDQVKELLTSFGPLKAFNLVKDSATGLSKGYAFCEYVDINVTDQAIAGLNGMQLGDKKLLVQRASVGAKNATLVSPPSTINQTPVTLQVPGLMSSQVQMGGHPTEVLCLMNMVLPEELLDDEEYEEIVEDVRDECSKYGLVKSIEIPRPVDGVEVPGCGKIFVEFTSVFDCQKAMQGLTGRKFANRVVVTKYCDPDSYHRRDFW
UniProt Q07955: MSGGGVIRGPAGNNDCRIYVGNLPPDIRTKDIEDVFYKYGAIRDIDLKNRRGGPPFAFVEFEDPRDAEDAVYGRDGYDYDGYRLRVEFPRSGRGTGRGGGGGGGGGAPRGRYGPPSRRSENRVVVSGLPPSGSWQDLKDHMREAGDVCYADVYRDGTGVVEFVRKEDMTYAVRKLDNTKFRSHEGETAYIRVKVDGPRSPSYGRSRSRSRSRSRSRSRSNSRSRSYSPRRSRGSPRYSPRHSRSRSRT
UniProt Q9UQ35: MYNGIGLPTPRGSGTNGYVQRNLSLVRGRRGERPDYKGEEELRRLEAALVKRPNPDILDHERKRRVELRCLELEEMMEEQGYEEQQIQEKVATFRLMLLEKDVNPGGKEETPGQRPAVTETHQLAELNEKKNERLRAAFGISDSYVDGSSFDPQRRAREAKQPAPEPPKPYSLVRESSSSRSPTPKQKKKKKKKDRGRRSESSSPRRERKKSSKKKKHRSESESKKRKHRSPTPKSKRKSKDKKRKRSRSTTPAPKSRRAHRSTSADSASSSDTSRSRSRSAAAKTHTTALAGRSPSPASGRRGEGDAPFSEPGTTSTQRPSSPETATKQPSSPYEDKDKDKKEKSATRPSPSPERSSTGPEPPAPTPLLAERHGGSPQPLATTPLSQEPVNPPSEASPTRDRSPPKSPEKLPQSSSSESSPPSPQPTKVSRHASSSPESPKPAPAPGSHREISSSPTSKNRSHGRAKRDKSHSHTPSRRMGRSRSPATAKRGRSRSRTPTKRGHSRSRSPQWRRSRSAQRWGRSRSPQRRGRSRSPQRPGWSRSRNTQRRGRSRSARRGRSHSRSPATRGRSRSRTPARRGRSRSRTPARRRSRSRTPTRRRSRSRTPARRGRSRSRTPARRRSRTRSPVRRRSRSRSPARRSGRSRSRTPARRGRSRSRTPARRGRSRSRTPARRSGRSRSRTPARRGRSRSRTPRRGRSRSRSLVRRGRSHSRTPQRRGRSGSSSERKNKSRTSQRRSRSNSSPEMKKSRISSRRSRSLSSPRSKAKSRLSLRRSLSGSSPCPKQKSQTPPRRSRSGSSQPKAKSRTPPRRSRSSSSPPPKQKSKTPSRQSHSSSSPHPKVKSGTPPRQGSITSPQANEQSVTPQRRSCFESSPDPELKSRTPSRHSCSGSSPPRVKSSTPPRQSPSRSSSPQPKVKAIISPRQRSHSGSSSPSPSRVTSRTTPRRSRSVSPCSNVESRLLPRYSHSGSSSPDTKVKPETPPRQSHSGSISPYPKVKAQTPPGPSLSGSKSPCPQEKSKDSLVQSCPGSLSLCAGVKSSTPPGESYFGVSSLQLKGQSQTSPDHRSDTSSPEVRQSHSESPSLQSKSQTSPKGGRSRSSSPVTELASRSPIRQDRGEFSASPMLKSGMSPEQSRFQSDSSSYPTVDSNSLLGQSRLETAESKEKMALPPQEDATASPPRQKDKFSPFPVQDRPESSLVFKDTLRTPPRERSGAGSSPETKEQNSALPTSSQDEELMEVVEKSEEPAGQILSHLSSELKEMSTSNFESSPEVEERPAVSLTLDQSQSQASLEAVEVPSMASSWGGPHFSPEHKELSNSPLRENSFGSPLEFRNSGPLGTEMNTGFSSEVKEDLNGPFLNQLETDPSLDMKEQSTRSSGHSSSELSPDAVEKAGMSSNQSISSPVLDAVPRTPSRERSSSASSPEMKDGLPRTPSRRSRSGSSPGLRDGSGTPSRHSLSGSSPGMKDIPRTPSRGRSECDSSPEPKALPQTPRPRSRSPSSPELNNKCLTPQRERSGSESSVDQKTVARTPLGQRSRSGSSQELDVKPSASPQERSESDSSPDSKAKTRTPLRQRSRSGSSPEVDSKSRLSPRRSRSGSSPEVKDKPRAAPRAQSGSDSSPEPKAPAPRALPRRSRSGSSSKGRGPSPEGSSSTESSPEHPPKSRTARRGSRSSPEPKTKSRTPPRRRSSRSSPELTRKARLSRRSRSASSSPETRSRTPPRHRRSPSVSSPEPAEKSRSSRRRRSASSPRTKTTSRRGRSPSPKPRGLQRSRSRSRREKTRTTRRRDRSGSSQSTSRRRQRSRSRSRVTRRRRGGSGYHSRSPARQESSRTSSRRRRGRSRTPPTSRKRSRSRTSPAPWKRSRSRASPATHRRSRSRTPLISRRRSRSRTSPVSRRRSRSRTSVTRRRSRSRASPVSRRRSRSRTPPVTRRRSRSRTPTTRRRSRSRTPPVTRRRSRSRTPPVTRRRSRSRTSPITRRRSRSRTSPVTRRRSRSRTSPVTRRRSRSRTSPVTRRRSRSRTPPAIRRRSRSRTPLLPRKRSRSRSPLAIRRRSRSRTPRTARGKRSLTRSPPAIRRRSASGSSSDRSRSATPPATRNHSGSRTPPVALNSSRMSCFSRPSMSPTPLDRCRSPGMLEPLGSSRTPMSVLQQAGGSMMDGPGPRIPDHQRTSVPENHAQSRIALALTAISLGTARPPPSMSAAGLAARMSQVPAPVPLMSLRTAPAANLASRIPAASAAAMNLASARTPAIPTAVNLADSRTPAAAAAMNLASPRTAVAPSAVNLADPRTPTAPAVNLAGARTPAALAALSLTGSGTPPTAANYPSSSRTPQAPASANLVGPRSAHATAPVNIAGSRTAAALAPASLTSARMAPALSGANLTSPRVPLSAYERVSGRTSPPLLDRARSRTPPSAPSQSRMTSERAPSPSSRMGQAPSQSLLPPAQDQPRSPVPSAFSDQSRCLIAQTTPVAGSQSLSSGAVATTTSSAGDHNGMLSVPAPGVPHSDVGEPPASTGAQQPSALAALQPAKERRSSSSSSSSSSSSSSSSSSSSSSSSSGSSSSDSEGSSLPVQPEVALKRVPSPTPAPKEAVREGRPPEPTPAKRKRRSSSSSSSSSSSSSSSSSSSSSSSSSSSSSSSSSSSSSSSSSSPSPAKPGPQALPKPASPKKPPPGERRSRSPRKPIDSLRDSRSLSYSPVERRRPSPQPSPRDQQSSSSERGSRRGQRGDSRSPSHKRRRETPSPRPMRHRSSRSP

Assay [1] concerns the target U2AF2 (human (endogenous in primary CD4 T cells and Jurkat cells)) (UniProt P26368). The assay can be described thus: affinity purification with mass spectrometry; U2AF2 RIP from lysates (RIPA + NET-2 buffer) of resting or activated CD4 T cells, pre-cleared with mouse IgG beads, U2AF2 antibody on Protein G beads overnight at 4°C, 5 washes with NET-2, no RNase; TripleTOF 5600, n = 6/group.

The target is the same in assay [2]. The assay can be described thus: affinity purification with mass spectrometry; as the U2AF2 RIP-MS, but RNAse A digestion on the beads (10 ug/ml for 30 minutes at RT) before elution; resting or activated CD4 T cells, n = 4/group.
Assay [3] shares this target. The assay can be described thus: affinity purification with mass spectrometry; SILAC: lysates of labelled and unlabelled resting and activated CD4 T cells mixed by cell number, U2AF2 RIP, mass spectrometry, ratios resting/activated, n = 3/group.

These are yes or no findings as the source states them, for the method shown. In cells and extracts the contact can be indirect. Here binding means that the protein was enriched with, or labelled near, the bait; the list need not be complete.

Regarding SFRS1 (from UniProt Q07955 1-248), the binding entry in assay [1] was “binds”.

SRRM2 (from UniProt Q9UQ35 1-2752): the binding result in assay [2], in assay [3] and in assay [1] was “binds” throughout.
